Some of the results follow.
How the values were obtained:
Assay in all cases: glycan array binding signal (z-score within array); higher = stronger binding
Conditions in all cases: glycan notation: IUPAC condensed, linker removed
[1] = biological target: Gal(b1-4)GlcNAc(b1-3)Gal(b1-4)GlcNAc(b1-2)[Gal(b1-4)GlcNAc(b1-3)Gal(b1-4)GlcNAc(b1-6)]Man(a1-6)[Gal(b1-4)GlcNAc(b1-3)Gal(b1-4)GlcNAc(b1-2)Man(a1-3)]Man(b1-4)GlcNAc(b1-4)GlcNAc
In short: (§1)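 The binding signal is a Z-score computed within each array and averaged over linkers. Arrays of the same protein sequence at different concentrations or buffers were also averaged together. Data originate from 3228 arrays in the Consortium for Functional Glycomics database, kept only where the protein sequence was available.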

[2] = biological target: Gal(b1-4)GlcNAc(b1-3)Gal(b1-4)GlcNAc(b1-2)[Gal(b1-4)GlcNAc(b1-3)Gal(b1-4)GlcNAc(b1-6)]Man(a1-6)[Gal(b1-4)GlcNAc(b1-3)Gal(b1-4)GlcNAc(b1-2)Man(a1-3)]Man(b1-4)GlcNAc(b1-4)[Fuc(a1-6)]GlcNAc
In short: as §1

[3] = biological target: Gal(b1-4)GlcNAc(b1-3)Gal(b1-4)GlcNAc(b1-3)Gal(b1-4)GlcNAc
In short: as §1

[4] = biological target: Gal(b1-4)GlcNAc(b1-3)Gal(b1-4)GlcNAc(b1-3)Gal(b1-4)GlcNAc(b1-2)Man(a1-3)[Gal(b1-4)GlcNAc(b1-3)Gal(b1-4)GlcNAc(b1-3)Gal(b1-4)GlcNAc(b1-2)Man(a1-6)]Man(b1-4)GlcNAc(b1-4)GlcNAc
In short: as §1

[5] = biological target: Gal(b1-4)GlcNAc(b1-3)Gal(b1-4)GlcNAc(b1-3)Gal(b1-4)GlcNAc(b1-2)Man(a1-3)[Gal(b1-4)GlcNAc(b1-3)Gal(b1-4)GlcNAc(b1-3)Gal(b1-4)GlcNAc(b1-2)Man(a1-6)]Man(b1-4)GlcNAc(b1-4)[Fuc(a1-6)]GlcNAc
In short: as §1

[6] = biological target: Gal(b1-4)GlcNAc(b1-3)Gal(b1-4)GlcNAc(b1-3)Gal(b1-4)GlcNAc(b1-2)[Gal(b1-4)GlcNAc(b1-3)Gal(b1-4)GlcNAc(b1-3)Gal(b1-4)GlcNAc(b1-6)]Man(a1-6)[Gal(b1-4)GlcNAc(b1-3)Gal(b1-4)GlcNAc(b1-3)Gal(b1-4)GlcNAc(b1-2)Man(a1-3)]Man(b1-4)GlcNAc(b1-4)[Fuc(a1-6)]GlcNAc
In short: as §1

[7] = biological target: Gal(b1-4)GlcNAc(b1-3)Gal(b1-4)GlcNAc(b1-3)Gal(b1-4)GlcNAc(b1-3)Gal(b1-4)GlcNAc(b1-2)Man(a1-3)[Gal(b1-4)GlcNAc(b1-3)Gal(b1-4)GlcNAc(b1-3)Gal(b1-4)GlcNAc(b1-3)Gal(b1-4)GlcNAc(b1-2)Man(a1-6)]Man(b1-4)GlcNAc(b1-4)GlcNAc
In short: as §1

[8] = biological target: Gal(b1-4)GlcNAc(b1-3)Gal(b1-4)GlcNAc(b1-3)Gal(b1-4)GlcNAc(b1-3)Gal(b1-4)GlcNAc(b1-2)Man(a1-3)[Gal(b1-4)GlcNAc(b1-3)Gal(b1-4)GlcNAc(b1-3)Gal(b1-4)GlcNAc(b1-3)Gal(b1-4)GlcNAc(b1-2)Man(a1-6)]Man(b1-4)GlcNAc(b1-4)[Fuc(a1-6)]GlcNAc
In short: as §1

[9] = biological target: Gal(b1-4)GlcNAc(b1-3)Gal(b1-4)GlcNAc(b1-3)Gal(b1-4)GlcNAc(b1-3)Gal(b1-4)GlcNAc(b1-2)[Gal(b1-4)GlcNAc(b1-3)Gal(b1-4)GlcNAc(b1-3)Gal(b1-4)GlcNAc(b1-3)Gal(b1-4)GlcNAc(b1-6)]Man(a1-6)[Gal(b1-4)GlcNAc(b1-3)Gal(b1-4)GlcNAc(b1-3)Gal(b1-4)GlcNAc(b1-3)Gal(b1-4)GlcNAc(b1-2)Man(a1-3)]Man(b1-4)GlcNAc(b1-4)[Fuc(a1-6)]GlcNAc
In short: as §1

[10] = biological target: Gal(b1-4)GlcNAc(b1-3)Gal(b1-4)GlcNAc(b1-3)Gal(b1-4)GlcNAc(b1-3)Gal(b1-4)GlcNAc(b1-3)Gal(b1-4)GlcNAc(b1-2)Man(a1-3)[Gal(b1-4)GlcNAc(b1-3)Gal(b1-4)GlcNAc(b1-3)Gal(b1-4)GlcNAc(b1-3)Gal(b1-4)GlcNAc(b1-3)Gal(b1-4)GlcNAc(b1-2)Man(a1-6)]Man(b1-4)GlcNAc(b1-4)GlcNAc
In short: as §1

[11] = biological target: Gal(b1-4)GlcNAc(b1-3)Gal(b1-4)GlcNAc(b1-3)Gal(b1-4)GlcNAc(b1-3)Gal(b1-4)GlcNAc(b1-3)Gal(b1-4)GlcNAc(b1-2)Man(a1-3)[Gal(b1-4)GlcNAc(b1-3)Gal(b1-4)GlcNAc(b1-3)Gal(b1-4)GlcNAc(b1-3)Gal(b1-4)GlcNAc(b1-3)Gal(b1-4)GlcNAc(b1-2)Man(a1-6)]Man(b1-4)GlcNAc(b1-4)[Fuc(a1-6)]GlcNAc
In short: as §1

[12] = biological target: Gal(b1-4)GlcNAc(b1-3)Gal(b1-4)GlcNAc(b1-3)Gal(b1-4)GlcNAc(b1-3)Gal(b1-4)GlcNAc(b1-3)Gal(b1-4)GlcNAc(b1-2)[Gal(b1-4)GlcNAc(b1-3)Gal(b1-4)GlcNAc(b1-3)Gal(b1-4)GlcNAc(b1-3)Gal(b1-4)GlcNAc(b1-3)Gal(b1-4)GlcNAc(b1-6)]Man(a1-6)[Gal(b1-4)GlcNAc(b1-3)Gal(b1-4)GlcNAc(b1-3)Gal(b1-4)GlcNAc(b1-3)Gal(b1-4)GlcNAc(b1-3)Gal(b1-4)GlcNAc(b1-2)Man(a1-3)]Man(b1-4)GlcNAc(b1-4)[Fuc(a1-6)]GlcNAc
In short: as §1

[13] = biological target: Gal(b1-4)GlcNAc(b1-3)Gal(b1-4)GlcNAc(b1-3)Gal(b1-4)GlcNAc(b1-3)Gal(b1-4)GlcNAc(b1-3)Gal(b1-4)GlcNAc(b1-3)Gal(b1-4)GlcNAc(b1-2)Man(a1-3)[Gal(b1-4)GlcNAc(b1-3)Gal(b1-4)GlcNAc(b1-3)Gal(b1-4)GlcNAc(b1-3)Gal(b1-4)GlcNAc(b1-3)Gal(b1-4)GlcNAc(b1-3)Gal(b1-4)GlcNAc(b1-2)Man(a1-6)]Man(b1-4)GlcNAc(b1-4)GlcNAc
In short: as §1

[14] = biological target: Gal(b1-4)GlcNAc(b1-3)Gal(b1-4)GlcNAc(b1-3)GalNAc
In short: as §1

[15] = biological target: Gal(b1-4)GlcNAc(b1-3)Gal(b1-4)GlcNAc(b1-3)[Gal(b1-4)GlcNAc(b1-3)Gal(b1-4)GlcNAc(b1-6)]GalNAc
In short: as §1

[16] = biological target: Gal(b1-4)GlcNAc(b1-3)Gal(b1-4)GlcNAc(b1-6)[Gal(b1-3)]GalNAc
In short: as §1

[17] = biological target: Gal(b1-4)GlcNAc(b1-3)Gal(b1-4)[Fuc(a1-3)]GlcNAc(b1-3)Gal(b1-4)[Fuc(a1-3)]GlcNAc
In short: as §1

[18] = biological target: Gal(b1-4)GlcNAc(b1-3)GalNAc
In short: as §1

[19] = biological target: Gal(b1-4)GlcNAc(b1-3)[Fuc(a1-3)GlcNAc(b1-6)]Gal(b1-4)Glc
In short: as §1

[20] = biological target: Gal(b1-4)GlcNAc(b1-3)[Gal(b1-4)GlcNAc(b1-6)]Gal(b1-4)GlcNAc
In short: as §1

[21] = biological target: Gal(b1-4)GlcNAc(b1-3)[GlcNAc(b1-6)]Gal(b1-4)GlcNAc
In short: as §1

[22] = biological target: Gal(b1-4)GlcNAc(b1-6)Gal(b1-4)GlcNAc
In short: as §1

[23] = biological target: Gal(b1-4)GlcNAc(b1-6)GalNAc
In short: as §1

[24] = biological target: Gal(b1-4)GlcNAc(b1-6)[Gal(b1-3)]GalNAc
In short: as §1

[25] = biological target: Gal(b1-4)GlcNAc(b1-6)[Gal(b1-4)GlcNAc(b1-3)]GalNAc
In short: as §1

[26] = biological target: Gal(b1-4)GlcNAc6P
In short: as §1

[27] = biological target: Gal(b1-6)Gal
In short: as §1

[28] = biological target: Gal3S(b1-3)GalNAc
In short: as §1

[29] = biological target: Gal3S(b1-3)GlcNAc
In short: as §1

[30] = biological target: Gal3S(b1-3)[Fuc(a1-4)]GlcNAc
In short: as §1

[31] = biological target: Gal3S(b1-4)Glc
In short: as §1

[32] = biological target: Gal3S(b1-4)Glc6S
In short: as §1

[33] = biological target: Gal3S(b1-4)GlcNAc
In short: as §1

[34] = biological target: Gal3S(b1-4)[Fuc(a1-3)]Glc6S
In short: as §1

[35] = biological target: Gal3S(b1-4)[Fuc(a1-3)]GlcNAc
In short: as §1

[36] = biological target: Gal3S(b1-4)[Fuc(a1-3)]GlcNAc6S
In short: as §1

[37] = biological target: Gal3S4S(b1-4)GlcNAc
In short: as §1

[38] = biological target: Gal3S6S(b1-4)GlcNAc
In short: as §1

[39] = biological target: Gal3S6S(b1-4)GlcNAc6S
In short: as §1

[40] = biological target: Gal4S(b1-4)GlcNAc
In short: as §1

[41] = biological target: Gal4S6S(b1-4)GlcNAc
In short: as §1

[42] = biological target: Gal6P(b1-4)GlcNAc
In short: as §1

[43] = biological target: Gal6S(b1-3)GlcNAc
In short: as §1

[44] = biological target: Gal6S(b1-3)GlcNAc6S
In short: as §1

[45] = biological target: Gal6S(b1-4)Glc
In short: as §1

B1: Clone646PsrP (Streptococcus pneumoniae) (protein)
chain: MDHHHHHHHHASENLYFQGAPAINASLNIAKSETKVYTGEGVDSVYRVPIYYKLKVTNDGSKLTFTYTVTYVNPKTNDLGNISSMRPGYSIYNSGTSTQTMLTLGSDLGKPSGVKNYITDKNGRQVLSYNTSTMTTQGSGYTWGNGAQMNGFFAKKGYGLTSSWTVPITGTDTSFTFTPYAARTDRIGINYFNGGGKVVESSTTSQSLSQSKSLSVSAS
In the case of B1, the “glycan array binding signal (z-score)” value [1] is reported as 2.04, the “glycan array binding signal (z-score)” value [2] is reported as -0.263 and the “glycan array binding signal (z-score)” value [3] is reported as -0.913. For the same binder, the “glycan array binding signal (z-score)” value [4] was 0.044, the “glycan array binding signal (z-score)” value [5] was -0.694 and the “glycan array binding signal (z-score)” value [6] was -0.442. For the same binder, the “glycan array binding signal (z-score)” value [7] was -0.444, the “glycan array binding signal (z-score)” value [8] was -0.114 and the “glycan array binding signal (z-score)” value [9] was -0.633. The “glycan array binding signal (z-score)” value [10] was -0.328, the “glycan array binding signal (z-score)” value [11] was 0.018 and the “glycan array binding signal (z-score)” value [12] was -0.364. The “glycan array binding signal (z-score)” value [13] was -0.635, the “glycan array binding signal (z-score)” value [14] was -0.462 and the “glycan array binding signal (z-score)” value [15] was -0.671. The “glycan array binding signal (z-score)” value [16] was 0.079, the “glycan array binding signal (z-score)” value [17] was -0.172 and the “glycan array binding signal (z-score)” value [18] was -0.267. The “glycan array binding signal (z-score)” value [19] was -0.582, the “glycan array binding signal (z-score)” value [20] was 0.052 and the “glycan array binding signal (z-score)” value [21] was -0.238. For the same binder, the “glycan array binding signal (z-score)” value [22] was -0.147, the “glycan array binding signal (z-score)” value [23] was 0.27 and the “glycan array binding signal (z-score)” value [24] was 0.263. The “glycan array binding signal (z-score)” value [25] was -0.293, the “glycan array binding signal (z-score)” value [26] was 2.57 and the “glycan array binding signal (z-score)” value [27] was 0.915. The “glycan array binding signal (z-score)” value [28] was 1.57, the “glycan array binding signal (z-score)” value [29] was 1.45 and the “glycan array binding signal (z-score)” value [30] was 0.934. For the same binder, the “glycan array binding signal (z-score)” value [31] was 1.81, the “glycan array binding signal (z-score)” value [32] was 1.63 and the “glycan array binding signal (z-score)” value [33] was 1.59. For the same binder, the “glycan array binding signal (z-score)” value [34] was -0.32, the “glycan array binding signal (z-score)” value [35] was 0.106 and the “glycan array binding signal (z-score)” value [36] was 3.08. For the same binder, the “glycan array binding signal (z-score)” value [37] was 0.998, the “glycan array binding signal (z-score)” value [38] was 2.75 and the “glycan array binding signal (z-score)” value [39] was 0.062. The “glycan array binding signal (z-score)” value [40] was -0.195, the “glycan array binding signal (z-score)” value [41] was 0.386 and the “glycan array binding signal (z-score)” value [42] was -0.539. The “glycan array binding signal (z-score)” value [43] was -0.735, the “glycan array binding signal (z-score)” value [44] was 0.489 and the “glycan array binding signal (z-score)” value [45] was -0.221.
